Differences between knockout arms are mostly noise.
Tested on: MDA-MB-231
Experiment: relative cell number vs DMSO control (72 h) (% of DMSO); higher = less growth inhibition (more cells)
Experimental: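 QMAP-Seq: a pool of 5 breast cancer cell lines (ZR-75-1, SKBR3, HCC-38, MDA-MB-231, BT-20), each carrying 12 doxycycline-inducible Cas9 sgRNA perturbations (11 knockouts plus non-targeting sgNT), was treated with compounds for 72 h at four 10-fold doses (10 nM-10 uM or 1 nM-1 uM range). Barcodes were amplified and sequenced, and cell number was interpolated from 293T spike-in standard curves. The result is expressed as % of the median of DMSO wells. Two biological replicates.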

COc1cc2c(cc1-c1c(C)noc1C)ncc1[nH]c(=O)n([C@H](C)c3ccccn3)c12 [IBET151]
Conditions	relative cell number
sgRNA knockout: sgATF3, 10 nM	82
sgRNA knockout: sgATF3, 100 nM	87.4
sgRNA knockout: sgATF3, 1000 nM	51
sgRNA knockout: sgATF3, 10000 nM	21.7
sgRNA knockout: sgATF4, 10 nM	99.9
sgRNA knockout: sgATF4, 100 nM	86.6
sgRNA knockout: sgATF4, 1000 nM	60.3
sgRNA knockout: sgATF4, 10000 nM	28.5
sgRNA knockout: sgATF6, 10 nM	87.3
sgRNA knockout: sgATF6, 100 nM	82.2
sgRNA knockout: sgATF6, 1000 nM	45.3
sgRNA knockout: sgATF6, 10000 nM	19.9
sgRNA knockout: sgATG7, 10 nM	89.4
sgRNA knockout: sgATG7, 100 nM	78.5
sgRNA knockout: sgATG7, 1000 nM	42.4
sgRNA knockout: sgATG7, 10000 nM	19.2
sgRNA knockout: sgERN1, 10 nM	88.9
sgRNA knockout: sgERN1, 100 nM	77.4
sgRNA knockout: sgERN1, 1000 nM	36.5
sgRNA knockout: sgERN1, 10000 nM	28.1
sgRNA knockout: sgHSF1, 10 nM	71.9
sgRNA knockout: sgHSF1, 100 nM	92.6
sgRNA knockout: sgHSF1, 1000 nM	36.3
sgRNA knockout: sgHSF1, 10000 nM	27.2
sgRNA knockout: sgHSF2, 10 nM	72.9
sgRNA knockout: sgHSF2, 100 nM	86.8
sgRNA knockout: sgHSF2, 1000 nM	40.8
sgRNA knockout: sgHSF2, 10000 nM	23.9
sgRNA knockout: sgKEAP1, 10 nM	98.2
sgRNA knockout: sgKEAP1, 100 nM	87.7
sgRNA knockout: sgKEAP1, 1000 nM	42.3
sgRNA knockout: sgKEAP1, 10000 nM	16
sgRNA knockout: sgNFE2L2, 10 nM	87.3
sgRNA knockout: sgNFE2L2, 100 nM	63.4
sgRNA knockout: sgNFE2L2, 1000 nM	39.7
sgRNA knockout: sgNFE2L2, 10000 nM	21.2
sgRNA knockout: sgSLC35F2, 10 nM	88.3
sgRNA knockout: sgSLC35F2, 100 nM	49.1
sgRNA knockout: sgSLC35F2, 1000 nM	33.8
sgRNA knockout: sgSLC35F2, 10000 nM	18.2
sgRNA knockout: sgXBP1, 10 nM	79.78
sgRNA knockout: sgXBP1, 100 nM	74.4
sgRNA knockout: sgXBP1, 1000 nM	36.5
sgRNA knockout: sgXBP1, 10000 nM	19

O=C(/C=C/c1ccc(O)cc1)c1ccc(O)cc1O [Isoliquiritigenin]
Conditions	relative cell number
sgRNA knockout: sgATF3, 10 nM	92.8
sgRNA knockout: sgATF3, 100 nM	105
sgRNA knockout: sgATF3, 1000 nM	95.3
sgRNA knockout: sgATF3, 10000 nM	91.9
sgRNA knockout: sgATF4, 10 nM	88.7
sgRNA knockout: sgATF4, 100 nM	124
sgRNA knockout: sgATF4, 1000 nM	92.1
sgRNA knockout: sgATF4, 10000 nM	114
sgRNA knockout: sgATF6, 10 nM	98.6
sgRNA knockout: sgATF6, 100 nM	84.4
sgRNA knockout: sgATF6, 1000 nM	97.2
sgRNA knockout: sgATF6, 10000 nM	107
sgRNA knockout: sgATG7, 10 nM	105
sgRNA knockout: sgATG7, 100 nM	106
sgRNA knockout: sgATG7, 1000 nM	112
sgRNA knockout: sgATG7, 10000 nM	76.8
sgRNA knockout: sgERN1, 10 nM	111
sgRNA knockout: sgERN1, 100 nM	90.62
sgRNA knockout: sgERN1, 1000 nM	93.4
sgRNA knockout: sgERN1, 10000 nM	86.8
sgRNA knockout: sgHSF1, 10 nM	98.4
sgRNA knockout: sgHSF1, 100 nM	83.89
sgRNA knockout: sgHSF1, 1000 nM	92.9
sgRNA knockout: sgHSF1, 10000 nM	91.9
sgRNA knockout: sgHSF2, 10 nM	110
sgRNA knockout: sgHSF2, 100 nM	113
sgRNA knockout: sgHSF2, 1000 nM	108
sgRNA knockout: sgHSF2, 10000 nM	88.5
sgRNA knockout: sgKEAP1, 10 nM	87
sgRNA knockout: sgKEAP1, 100 nM	97.7
sgRNA knockout: sgKEAP1, 1000 nM	93.7
sgRNA knockout: sgKEAP1, 10000 nM	83.4
sgRNA knockout: sgNFE2L2, 10 nM	84.1
sgRNA knockout: sgNFE2L2, 100 nM	93.1
sgRNA knockout: sgNFE2L2, 1000 nM	80.2
sgRNA knockout: sgNFE2L2, 10000 nM	88.3
sgRNA knockout: sgSLC35F2, 10 nM	98.6
sgRNA knockout: sgSLC35F2, 100 nM	103
sgRNA knockout: sgSLC35F2, 1000 nM	89.61
sgRNA knockout: sgSLC35F2, 10000 nM	87
sgRNA knockout: sgXBP1, 10 nM	117
sgRNA knockout: sgXBP1, 100 nM	101
sgRNA knockout: sgXBP1, 1000 nM	92.5
sgRNA knockout: sgXBP1, 10000 nM	93.8

COc1cc2nccc(Oc3ccc(NC(=O)NC4CC4)c(Cl)c3)c2cc1C(N)=O [Lenvatinib]
Conditions	relative cell number
sgRNA knockout: sgATF3, 10 nM	97.9
sgRNA knockout: sgATF3, 100 nM	95.1
sgRNA knockout: sgATF3, 1000 nM	124
sgRNA knockout: sgATF3, 10000 nM	91.4
sgRNA knockout: sgATF4, 10 nM	118
sgRNA knockout: sgATF4, 100 nM	107
sgRNA knockout: sgATF4, 1000 nM	93.5
sgRNA knockout: sgATF4, 10000 nM	96.27
sgRNA knockout: sgATF6, 10 nM	90.87
sgRNA knockout: sgATF6, 100 nM	90.9
sgRNA knockout: sgATF6, 1000 nM	85.7
sgRNA knockout: sgATF6, 10000 nM	105
sgRNA knockout: sgATG7, 10 nM	76.2
sgRNA knockout: sgATG7, 100 nM	102
sgRNA knockout: sgATG7, 1000 nM	84.1
sgRNA knockout: sgATG7, 10000 nM	92.6
sgRNA knockout: sgERN1, 10 nM	96.9
sgRNA knockout: sgERN1, 100 nM	103
sgRNA knockout: sgERN1, 1000 nM	98.9
sgRNA knockout: sgERN1, 10000 nM	81.6
sgRNA knockout: sgHSF1, 10 nM	98.7
sgRNA knockout: sgHSF1, 100 nM	97.4
sgRNA knockout: sgHSF1, 1000 nM	125.4
sgRNA knockout: sgHSF1, 10000 nM	106
sgRNA knockout: sgHSF2, 10 nM	86.4
sgRNA knockout: sgHSF2, 100 nM	97.2
sgRNA knockout: sgHSF2, 1000 nM	95.8
sgRNA knockout: sgHSF2, 10000 nM	105
sgRNA knockout: sgKEAP1, 10 nM	90.3
sgRNA knockout: sgKEAP1, 100 nM	110
sgRNA knockout: sgKEAP1, 1000 nM	108
sgRNA knockout: sgKEAP1, 10000 nM	90.4
sgRNA knockout: sgNFE2L2, 10 nM	100
sgRNA knockout: sgNFE2L2, 100 nM	120
sgRNA knockout: sgNFE2L2, 1000 nM	117
sgRNA knockout: sgNFE2L2, 10000 nM	120
sgRNA knockout: sgSLC35F2, 10 nM	101
sgRNA knockout: sgSLC35F2, 100 nM	97
sgRNA knockout: sgSLC35F2, 1000 nM	106
sgRNA knockout: sgSLC35F2, 10000 nM	88.4
sgRNA knockout: sgXBP1, 10 nM	100
sgRNA knockout: sgXBP1, 100 nM	104
sgRNA knockout: sgXBP1, 1000 nM	108
sgRNA knockout: sgXBP1, 10000 nM	96.9
